Reference: patent US20040209897A1 (Pharmacia Corporation, priority 2002, published 2004)
The structures given here were assigned with low confidence; some may be wrong.

Chains of the proteins cited; added tags and fusions are not shown.
UniProt P49137, whole entry: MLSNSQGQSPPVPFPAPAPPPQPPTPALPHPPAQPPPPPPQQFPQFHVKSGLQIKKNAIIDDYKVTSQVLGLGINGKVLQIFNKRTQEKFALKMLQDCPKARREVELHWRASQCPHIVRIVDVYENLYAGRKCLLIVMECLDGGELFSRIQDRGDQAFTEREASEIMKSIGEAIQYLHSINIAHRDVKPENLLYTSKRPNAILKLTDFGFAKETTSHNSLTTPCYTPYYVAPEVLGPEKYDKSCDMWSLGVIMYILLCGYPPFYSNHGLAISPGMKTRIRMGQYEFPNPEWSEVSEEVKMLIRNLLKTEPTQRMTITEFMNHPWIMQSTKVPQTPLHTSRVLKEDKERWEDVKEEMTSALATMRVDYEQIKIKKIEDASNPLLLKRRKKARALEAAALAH

Molecular target: Recombinant MAPKAPK2 (MK-2) (Homo sapiens, UniProt P49137)
Test: Determination of MK-2 IC50 (HSP-peptide phosphorylation, anion exchange resin capture assay)
Assay type: biochemical
Details: read-out: MAPKAP2 Avg. IC50; tested form: TFA

O=C1NCCc2[nH]c(-c3ccnc(-c4cccc5cccnc45)c3)cc21
IC50: 10.8 µM
